No constants are given. Whether binding was seen depends on the method and setting. In cells and extracts the contact can be indirect. Some results given as binding are weak or reduced against the parent protein; the word gives no strength. For some assays here: Sequences can lack the tags named with a protein.
Assays:
[1] = target: T1, IRF-1^291 (IRF-1 mutant with the 34-aa COOH terminus deleted) (UniProt P10914); experiment: co-IP; whole-cell extracts (300 ug) of HEK293 cells cotransfected with Flag-Tat, GFP-HDM2 and IRF-1^291; polyclonal anti-IRF-1 antibody overnight at 4°C, then protein A/G-Sepharose; Tat and HDM2 detected by Western blot
T1 sequence: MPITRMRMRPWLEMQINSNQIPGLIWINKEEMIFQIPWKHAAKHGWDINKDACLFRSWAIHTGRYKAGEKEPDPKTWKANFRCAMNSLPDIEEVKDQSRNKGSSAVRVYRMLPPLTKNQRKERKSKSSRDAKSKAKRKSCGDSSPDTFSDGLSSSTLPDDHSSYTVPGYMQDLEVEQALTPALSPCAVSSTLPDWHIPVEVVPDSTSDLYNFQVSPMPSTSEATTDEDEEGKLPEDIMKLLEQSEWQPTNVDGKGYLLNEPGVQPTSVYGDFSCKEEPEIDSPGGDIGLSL

Protein sequences, listed by entry. Tags and fused reporters are not part of them.
UniProt Q00987: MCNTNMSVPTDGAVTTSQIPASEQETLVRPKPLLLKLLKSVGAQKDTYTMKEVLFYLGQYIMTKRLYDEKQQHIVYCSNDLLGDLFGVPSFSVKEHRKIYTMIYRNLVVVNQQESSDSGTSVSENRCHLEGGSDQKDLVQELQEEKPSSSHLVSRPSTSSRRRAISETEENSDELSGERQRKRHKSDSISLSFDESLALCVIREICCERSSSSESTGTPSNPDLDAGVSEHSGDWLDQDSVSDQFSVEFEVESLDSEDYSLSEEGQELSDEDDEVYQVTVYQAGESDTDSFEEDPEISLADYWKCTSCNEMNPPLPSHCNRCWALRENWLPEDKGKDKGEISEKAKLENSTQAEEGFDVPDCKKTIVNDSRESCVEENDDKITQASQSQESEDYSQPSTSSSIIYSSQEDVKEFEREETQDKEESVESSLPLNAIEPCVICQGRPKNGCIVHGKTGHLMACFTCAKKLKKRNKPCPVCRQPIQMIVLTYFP

[2] = target: T2, Flag-tagged IRF-1 (interferon regulatory factor 1) (UniProt P10914); experiment: co-IP; whole-cell extracts of HEK293 cells transfected with Flag-IRF-1 and Tat and/or GFP-HDM2; anti-Flag M2 resin or control IgG; blots with anti-Tat, anti-GFP, anti-IRF-1
T2 sequence: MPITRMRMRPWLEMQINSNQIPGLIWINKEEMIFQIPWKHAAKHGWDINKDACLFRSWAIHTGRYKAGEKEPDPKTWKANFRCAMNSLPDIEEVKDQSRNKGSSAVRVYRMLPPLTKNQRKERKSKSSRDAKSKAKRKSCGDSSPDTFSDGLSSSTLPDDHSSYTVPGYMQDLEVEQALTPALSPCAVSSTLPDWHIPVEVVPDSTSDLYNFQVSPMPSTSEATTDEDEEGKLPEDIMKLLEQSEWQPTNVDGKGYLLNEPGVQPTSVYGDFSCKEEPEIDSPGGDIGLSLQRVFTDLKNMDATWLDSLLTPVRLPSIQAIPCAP

GFP-tagged HDM2 (human double minute 2 protein) (from UniProt Q00987 1-491) (enzyme)
binding [1]: binds
binding [2]: binds
